Reference: article PMC10476466
Results are given in words; binding and its absence hold for the method and conditions named. In cells and extracts the contact can be indirect. Some binding calls cover weakened binding; strength is not graded here.

Protein sequences, listed by entry. Tags and fused reporters are not part of them.
UniProt P06748: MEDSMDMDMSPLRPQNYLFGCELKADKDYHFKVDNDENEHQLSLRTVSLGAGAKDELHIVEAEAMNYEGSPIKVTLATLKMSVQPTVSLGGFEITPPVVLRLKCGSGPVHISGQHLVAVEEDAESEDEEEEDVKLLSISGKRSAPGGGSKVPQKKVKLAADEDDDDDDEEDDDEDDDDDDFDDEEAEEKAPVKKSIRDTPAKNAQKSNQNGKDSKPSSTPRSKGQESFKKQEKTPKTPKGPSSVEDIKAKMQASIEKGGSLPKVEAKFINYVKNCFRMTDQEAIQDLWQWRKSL

What was measured:
[1] = target: T1, PH domain of PLD1 (UniProt Q13393); experiment: co-IP; with PLD1 deletion constructs and with NPM1 deletion constructs; host and tags not shown
T1 sequence: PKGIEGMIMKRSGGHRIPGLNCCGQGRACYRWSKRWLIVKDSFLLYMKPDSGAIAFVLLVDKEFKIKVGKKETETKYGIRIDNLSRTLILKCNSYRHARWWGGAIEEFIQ

[2] = target: T2, phospholipase D1 (PLD1) (UniProt Q13393); experiment: co-IP; after nucleocytoplasmic separation (NE-PER nuclear and cytoplasmic extracts) of EV, WT, NLM and KRM cell lines; antibody on protein A/G magnetic beads, overnight at 4°C
T2 sequence: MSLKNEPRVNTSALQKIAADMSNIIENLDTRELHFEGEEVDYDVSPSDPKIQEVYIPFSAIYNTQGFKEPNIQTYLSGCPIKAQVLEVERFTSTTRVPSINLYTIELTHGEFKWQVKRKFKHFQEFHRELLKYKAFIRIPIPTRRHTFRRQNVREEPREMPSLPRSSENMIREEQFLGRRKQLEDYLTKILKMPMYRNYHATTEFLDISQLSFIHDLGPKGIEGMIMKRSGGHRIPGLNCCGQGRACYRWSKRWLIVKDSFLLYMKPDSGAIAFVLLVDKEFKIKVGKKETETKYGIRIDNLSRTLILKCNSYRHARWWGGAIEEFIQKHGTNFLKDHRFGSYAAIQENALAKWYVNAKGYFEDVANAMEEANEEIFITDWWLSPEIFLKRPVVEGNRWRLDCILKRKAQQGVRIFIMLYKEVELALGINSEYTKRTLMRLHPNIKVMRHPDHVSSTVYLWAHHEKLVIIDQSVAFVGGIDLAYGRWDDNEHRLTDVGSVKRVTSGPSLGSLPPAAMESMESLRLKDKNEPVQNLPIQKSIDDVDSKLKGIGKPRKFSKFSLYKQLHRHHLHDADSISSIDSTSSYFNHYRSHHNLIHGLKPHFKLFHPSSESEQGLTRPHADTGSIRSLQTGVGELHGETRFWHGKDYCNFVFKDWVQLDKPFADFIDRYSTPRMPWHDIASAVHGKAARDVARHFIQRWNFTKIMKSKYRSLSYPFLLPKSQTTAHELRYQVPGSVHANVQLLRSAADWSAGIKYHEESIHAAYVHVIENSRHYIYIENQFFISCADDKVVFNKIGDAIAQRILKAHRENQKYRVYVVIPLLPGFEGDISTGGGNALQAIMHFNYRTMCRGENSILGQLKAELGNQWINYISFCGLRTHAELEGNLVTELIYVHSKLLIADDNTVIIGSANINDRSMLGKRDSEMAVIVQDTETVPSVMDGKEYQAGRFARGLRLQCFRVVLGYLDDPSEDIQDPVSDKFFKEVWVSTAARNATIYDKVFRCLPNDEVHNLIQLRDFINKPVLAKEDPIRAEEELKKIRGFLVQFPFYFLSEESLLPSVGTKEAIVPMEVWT

[3] = target: T2, phospholipase D1 (PLD1); experiment: co-IP; PLD1 or NPM1 antibody on protein A/G magnetic beads, incubated with cell extracts overnight at 4°C, washed 5 times with PBS containing 0.1% NP-40, Western blot; PLD1 overexpression cell lines

Measured: binding

nucleophosmin 1 (NPM1) (from UniProt P06748 1-294)
binds: all assays above
